Data on 1 molecule can be found in EP4582447A1 (Quaerite Biopharm Research (Beijing) Co., Ltd., dated 2025).

Results are given in words; binding and its absence hold for the method and conditions named. Some binding calls cover weakened binding; strength is not graded here.

In the test the target is T1, human VEGFA121 (human, UniProt P15692-9 27-147).
T1 sequence (looked up): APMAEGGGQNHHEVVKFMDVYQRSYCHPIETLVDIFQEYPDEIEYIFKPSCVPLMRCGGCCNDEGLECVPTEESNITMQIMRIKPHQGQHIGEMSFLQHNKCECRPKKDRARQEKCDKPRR
As to the kind of experiment: ELISA, human VEGFA121 coated 0.3 µg/mL.

B1: V1 (VHH)
VHH: QLQLVESGGGSVQPGGSLRLSCEVSGRTFSSYTMGWFRQAPGKEREFVVAISKGGYKYDSVSLEARFTISKDNTKNTVYLQMNSLKPEDTAVYYCAATRAYGSSRLRLADTYEYWGQGTQVTVSS
notes: also called candidate antibody V1; antibody V1
B1: the binding entry is on record as “binds”.
